Compound in this assay: CC1Cc2ccccc2N1C(=O)C1CCCN(C1)C(=O)CCl (mixture of isomers) [TRIM25 ligand 11 (diastereomer mixture)]
Put plainly: probe-labelled cysteine peptide fold change vs DMSO (competition) (log2 fold change); higher = less target engagement (more negative = stronger competition). The note with it: THP-1, incubation time: 4 h.

The chains behind the UniProt entries cited, without tags or fusion partners. Where a name states a change or a piece, a line headed by the entry shows the natural chain unless it says otherwise.
UniProt Q92574: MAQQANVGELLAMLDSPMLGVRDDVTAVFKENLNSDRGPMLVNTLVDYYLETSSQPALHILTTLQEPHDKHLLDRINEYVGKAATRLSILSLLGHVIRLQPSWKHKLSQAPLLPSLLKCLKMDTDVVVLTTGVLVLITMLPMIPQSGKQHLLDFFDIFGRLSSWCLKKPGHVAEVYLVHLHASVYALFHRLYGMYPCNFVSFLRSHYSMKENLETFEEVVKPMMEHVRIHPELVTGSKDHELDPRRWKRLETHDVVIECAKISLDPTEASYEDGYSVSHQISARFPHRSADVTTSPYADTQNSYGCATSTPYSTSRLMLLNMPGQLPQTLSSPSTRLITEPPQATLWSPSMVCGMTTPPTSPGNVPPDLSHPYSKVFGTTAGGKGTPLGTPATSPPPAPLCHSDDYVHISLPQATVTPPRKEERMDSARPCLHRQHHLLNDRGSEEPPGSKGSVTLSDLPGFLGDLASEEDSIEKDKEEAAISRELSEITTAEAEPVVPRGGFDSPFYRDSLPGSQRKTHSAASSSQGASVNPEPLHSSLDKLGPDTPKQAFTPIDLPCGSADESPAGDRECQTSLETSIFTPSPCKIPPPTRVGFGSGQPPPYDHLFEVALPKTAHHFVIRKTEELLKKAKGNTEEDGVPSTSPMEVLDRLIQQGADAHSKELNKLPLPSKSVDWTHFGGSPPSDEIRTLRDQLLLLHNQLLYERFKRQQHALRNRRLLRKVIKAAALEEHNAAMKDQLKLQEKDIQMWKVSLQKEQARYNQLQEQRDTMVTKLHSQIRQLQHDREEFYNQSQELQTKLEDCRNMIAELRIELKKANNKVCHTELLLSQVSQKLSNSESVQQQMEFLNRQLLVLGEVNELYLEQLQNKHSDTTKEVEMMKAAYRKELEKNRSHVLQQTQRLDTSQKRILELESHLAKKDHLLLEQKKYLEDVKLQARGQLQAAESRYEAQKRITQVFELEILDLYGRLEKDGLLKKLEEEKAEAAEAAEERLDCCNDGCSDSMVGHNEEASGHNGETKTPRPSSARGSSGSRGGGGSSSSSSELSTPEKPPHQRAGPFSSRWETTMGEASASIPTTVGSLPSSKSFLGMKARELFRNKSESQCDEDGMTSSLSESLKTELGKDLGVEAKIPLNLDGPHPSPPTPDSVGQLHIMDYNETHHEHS
UniProt Q6PGP7, whole entry, looked up: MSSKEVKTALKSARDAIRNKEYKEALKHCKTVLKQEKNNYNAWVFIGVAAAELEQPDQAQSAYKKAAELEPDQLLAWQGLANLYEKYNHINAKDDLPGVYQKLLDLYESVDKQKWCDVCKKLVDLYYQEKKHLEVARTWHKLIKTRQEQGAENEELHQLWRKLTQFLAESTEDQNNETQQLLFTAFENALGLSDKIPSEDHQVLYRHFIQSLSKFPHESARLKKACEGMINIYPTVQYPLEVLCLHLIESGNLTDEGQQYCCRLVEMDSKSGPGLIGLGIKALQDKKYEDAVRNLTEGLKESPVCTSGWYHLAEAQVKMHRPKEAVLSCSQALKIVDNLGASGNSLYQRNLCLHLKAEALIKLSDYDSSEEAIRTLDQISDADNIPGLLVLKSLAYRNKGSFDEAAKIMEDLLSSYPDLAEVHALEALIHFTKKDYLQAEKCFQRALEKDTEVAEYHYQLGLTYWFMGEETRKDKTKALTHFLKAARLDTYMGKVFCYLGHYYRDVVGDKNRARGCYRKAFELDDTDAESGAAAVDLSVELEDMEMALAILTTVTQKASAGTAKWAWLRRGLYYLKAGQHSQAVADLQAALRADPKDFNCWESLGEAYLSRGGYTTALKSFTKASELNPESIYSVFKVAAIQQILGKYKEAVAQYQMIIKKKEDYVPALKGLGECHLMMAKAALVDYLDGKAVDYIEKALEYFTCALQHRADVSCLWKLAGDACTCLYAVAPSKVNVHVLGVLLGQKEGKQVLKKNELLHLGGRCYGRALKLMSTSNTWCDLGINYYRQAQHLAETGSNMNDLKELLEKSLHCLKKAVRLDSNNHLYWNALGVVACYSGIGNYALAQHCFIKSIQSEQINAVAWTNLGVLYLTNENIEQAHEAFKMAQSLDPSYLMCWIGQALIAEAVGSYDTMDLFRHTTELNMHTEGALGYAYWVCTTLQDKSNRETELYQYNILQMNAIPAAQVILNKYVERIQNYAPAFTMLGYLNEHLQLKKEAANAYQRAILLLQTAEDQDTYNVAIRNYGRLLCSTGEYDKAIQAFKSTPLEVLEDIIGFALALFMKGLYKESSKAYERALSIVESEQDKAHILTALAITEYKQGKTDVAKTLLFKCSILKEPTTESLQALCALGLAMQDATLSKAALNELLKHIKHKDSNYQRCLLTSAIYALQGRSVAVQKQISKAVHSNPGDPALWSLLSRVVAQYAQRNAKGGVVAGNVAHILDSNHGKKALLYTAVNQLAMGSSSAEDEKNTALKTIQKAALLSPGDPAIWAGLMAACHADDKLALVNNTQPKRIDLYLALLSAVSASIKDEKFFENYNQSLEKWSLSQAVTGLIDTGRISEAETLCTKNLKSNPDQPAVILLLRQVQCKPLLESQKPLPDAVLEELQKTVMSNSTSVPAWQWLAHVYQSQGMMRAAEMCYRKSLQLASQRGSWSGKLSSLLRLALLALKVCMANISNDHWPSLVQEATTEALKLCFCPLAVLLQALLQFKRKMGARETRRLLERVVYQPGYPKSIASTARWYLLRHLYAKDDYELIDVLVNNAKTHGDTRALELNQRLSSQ
UniProt Q86VY4: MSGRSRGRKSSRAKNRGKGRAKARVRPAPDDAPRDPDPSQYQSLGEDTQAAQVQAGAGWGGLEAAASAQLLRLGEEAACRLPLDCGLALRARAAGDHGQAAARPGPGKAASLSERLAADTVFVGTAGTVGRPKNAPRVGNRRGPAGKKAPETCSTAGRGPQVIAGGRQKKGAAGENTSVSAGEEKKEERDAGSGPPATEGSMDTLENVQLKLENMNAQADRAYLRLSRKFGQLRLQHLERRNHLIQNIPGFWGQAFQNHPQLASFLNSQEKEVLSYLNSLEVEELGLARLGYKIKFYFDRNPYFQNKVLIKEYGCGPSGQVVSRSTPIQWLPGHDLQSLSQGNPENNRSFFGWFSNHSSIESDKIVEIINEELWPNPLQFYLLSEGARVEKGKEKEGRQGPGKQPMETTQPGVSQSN
UniProt Q14166: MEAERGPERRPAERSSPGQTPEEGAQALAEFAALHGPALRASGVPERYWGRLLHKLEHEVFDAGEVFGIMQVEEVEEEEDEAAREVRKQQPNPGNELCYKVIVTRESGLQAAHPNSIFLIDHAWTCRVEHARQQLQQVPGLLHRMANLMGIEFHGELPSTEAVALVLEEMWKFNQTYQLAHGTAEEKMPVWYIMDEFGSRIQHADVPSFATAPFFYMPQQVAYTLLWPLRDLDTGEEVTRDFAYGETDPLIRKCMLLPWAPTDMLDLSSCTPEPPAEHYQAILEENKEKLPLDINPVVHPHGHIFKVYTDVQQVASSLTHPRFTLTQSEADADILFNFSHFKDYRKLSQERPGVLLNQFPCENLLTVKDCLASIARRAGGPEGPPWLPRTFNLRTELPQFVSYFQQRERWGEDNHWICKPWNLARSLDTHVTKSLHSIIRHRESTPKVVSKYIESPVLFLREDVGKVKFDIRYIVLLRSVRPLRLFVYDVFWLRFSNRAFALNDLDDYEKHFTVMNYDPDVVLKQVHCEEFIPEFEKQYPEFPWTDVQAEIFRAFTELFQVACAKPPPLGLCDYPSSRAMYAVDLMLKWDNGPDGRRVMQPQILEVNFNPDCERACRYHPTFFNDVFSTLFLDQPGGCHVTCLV
UniProt P49815: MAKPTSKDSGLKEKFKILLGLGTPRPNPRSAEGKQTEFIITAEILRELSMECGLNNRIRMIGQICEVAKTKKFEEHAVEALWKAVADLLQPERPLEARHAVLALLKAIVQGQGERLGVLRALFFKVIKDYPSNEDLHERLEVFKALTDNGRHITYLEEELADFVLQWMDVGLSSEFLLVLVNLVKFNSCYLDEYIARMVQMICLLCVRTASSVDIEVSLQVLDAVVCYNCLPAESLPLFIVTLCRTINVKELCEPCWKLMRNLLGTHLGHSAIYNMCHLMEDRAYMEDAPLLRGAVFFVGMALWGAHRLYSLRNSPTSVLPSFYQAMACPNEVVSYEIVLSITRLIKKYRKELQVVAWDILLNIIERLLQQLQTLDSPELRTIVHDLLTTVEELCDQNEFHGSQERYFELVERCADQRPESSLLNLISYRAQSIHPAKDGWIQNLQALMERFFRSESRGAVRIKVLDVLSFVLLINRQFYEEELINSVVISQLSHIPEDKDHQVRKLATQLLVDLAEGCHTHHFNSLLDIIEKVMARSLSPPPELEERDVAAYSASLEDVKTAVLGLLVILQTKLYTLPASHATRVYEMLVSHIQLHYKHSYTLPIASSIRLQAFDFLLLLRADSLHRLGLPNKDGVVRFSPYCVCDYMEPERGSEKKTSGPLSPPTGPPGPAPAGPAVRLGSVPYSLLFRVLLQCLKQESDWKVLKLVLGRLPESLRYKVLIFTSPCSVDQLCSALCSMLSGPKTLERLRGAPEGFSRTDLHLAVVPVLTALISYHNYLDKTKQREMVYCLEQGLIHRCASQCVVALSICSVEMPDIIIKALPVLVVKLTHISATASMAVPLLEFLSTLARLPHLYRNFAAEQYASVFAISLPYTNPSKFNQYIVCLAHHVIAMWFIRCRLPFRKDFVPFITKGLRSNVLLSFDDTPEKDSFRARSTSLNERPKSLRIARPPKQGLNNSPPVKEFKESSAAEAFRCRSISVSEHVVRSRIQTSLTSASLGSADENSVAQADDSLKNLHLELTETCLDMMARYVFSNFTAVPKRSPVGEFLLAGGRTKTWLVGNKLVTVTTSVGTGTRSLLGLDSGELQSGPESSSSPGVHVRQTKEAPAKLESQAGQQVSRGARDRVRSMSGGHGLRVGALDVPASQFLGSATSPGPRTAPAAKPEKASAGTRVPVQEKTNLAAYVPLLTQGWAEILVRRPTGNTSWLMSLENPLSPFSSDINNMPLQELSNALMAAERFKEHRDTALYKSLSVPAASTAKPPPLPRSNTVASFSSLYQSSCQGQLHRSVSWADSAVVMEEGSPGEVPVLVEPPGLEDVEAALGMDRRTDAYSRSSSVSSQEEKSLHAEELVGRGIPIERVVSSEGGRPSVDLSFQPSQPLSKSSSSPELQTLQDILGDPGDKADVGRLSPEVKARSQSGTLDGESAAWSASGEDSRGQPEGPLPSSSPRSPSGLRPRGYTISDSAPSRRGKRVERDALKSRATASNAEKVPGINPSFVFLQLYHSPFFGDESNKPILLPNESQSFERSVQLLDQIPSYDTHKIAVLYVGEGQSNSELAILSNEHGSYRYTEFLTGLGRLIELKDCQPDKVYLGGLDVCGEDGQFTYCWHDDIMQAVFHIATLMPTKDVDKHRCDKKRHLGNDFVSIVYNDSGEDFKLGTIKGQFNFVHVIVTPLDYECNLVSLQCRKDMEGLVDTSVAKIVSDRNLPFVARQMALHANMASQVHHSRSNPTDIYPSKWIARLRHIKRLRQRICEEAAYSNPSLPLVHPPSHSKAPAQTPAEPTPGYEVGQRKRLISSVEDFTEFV
UniProt Q9GZX9: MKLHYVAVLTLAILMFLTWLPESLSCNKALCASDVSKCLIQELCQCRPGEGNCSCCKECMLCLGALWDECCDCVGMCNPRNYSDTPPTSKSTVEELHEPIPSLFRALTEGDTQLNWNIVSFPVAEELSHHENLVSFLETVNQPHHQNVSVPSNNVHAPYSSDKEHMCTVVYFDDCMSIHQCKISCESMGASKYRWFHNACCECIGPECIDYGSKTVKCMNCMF
UniProt P10155: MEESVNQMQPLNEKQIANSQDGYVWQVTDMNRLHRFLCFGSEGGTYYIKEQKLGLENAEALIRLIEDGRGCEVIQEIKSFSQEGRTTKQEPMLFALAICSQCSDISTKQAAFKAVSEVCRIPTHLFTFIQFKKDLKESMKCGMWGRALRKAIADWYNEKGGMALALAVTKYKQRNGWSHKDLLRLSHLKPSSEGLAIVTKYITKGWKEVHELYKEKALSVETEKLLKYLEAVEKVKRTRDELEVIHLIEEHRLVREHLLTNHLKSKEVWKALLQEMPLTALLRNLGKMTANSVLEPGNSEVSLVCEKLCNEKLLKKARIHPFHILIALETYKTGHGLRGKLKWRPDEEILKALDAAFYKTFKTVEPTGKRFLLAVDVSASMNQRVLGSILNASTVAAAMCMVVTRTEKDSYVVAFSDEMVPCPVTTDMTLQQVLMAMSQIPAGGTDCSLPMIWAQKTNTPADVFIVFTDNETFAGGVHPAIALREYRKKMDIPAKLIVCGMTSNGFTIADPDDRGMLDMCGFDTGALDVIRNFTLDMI

This is one part of the list.
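Further: competitive chemoproteomic profiling in live THP-1 cells with an iodoacetamide desthiobiotin (IA-DTB) probe, comparing probe-labelled peptide intensities in compound-treated cells against DMSO-treated controls.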

As for “TTC21B_Q7Z4L5_937_LYLAQDDPDSCLR (UniProt Q7Z4L5)”, the “probe-labelled cysteine peptide fold change” value was 0.00849 (10 µM) and -0.051 (50 µM).
As for “TUBA1C_Q9BQE3_376_AVCMLSNTTAVAEAWAR (UniProt Q9BQE3)”, the “probe-labelled cysteine peptide fold change” value is 0.00156 (10 µM) and -0.0426 (50 µM).
In the same order, the values of “TUT4_Q5TAX3_309_LCLIHIENIQGAHK (UniProt Q5TAX3)” are 0.058 and 0.245.
In the same order, the values of “TSC1_Q92574_259_RLETHDVVIECAK (UniProt Q92574)” are 0.188 and 0.372.
For the target “TXNDC11_Q6PKC3_815_ECLQSEAVLQR (UniProt Q6PKC3)”, the “probe-labelled cysteine peptide fold change” value reads like this: (10 µM) -0.111; (50 µM) -0.159.
For “TTC37_Q6PGP7_329_EAVLSCSQALK (UniProt Q6PGP7)”, the “probe-labelled cysteine peptide fold change” value is, setting by setting: (10 µM) -0.103; (50 µM) -0.0728.
In the same order, the values of “TTC38_Q5R3I4_128_ACELWEQILQDHPTDMLALK (UniProt Q5R3I4)” are -0.15 and -0.251.
The corresponding values for “TRPM7_Q96QT4_1411_FFVSTPSQPSCK (UniProt Q96QT4)” are 0.0488 and -0.294.
For the target “TSPYL5_Q86VY4_153_KAPETCSTAGR (UniProt Q86VY4)”, the “probe-labelled cysteine peptide fold change” value (10 µM) is -0.142 and the “probe-labelled cysteine peptide fold change” value (50 µM) is -0.0577.
In the same order, the values of “TSSC4_Q9Y5U2_99_SRDIFDCLEGAAR (UniProt Q9Y5U2)” are -0.397 and -0.414.
On to “TTF1_Q15361_708_LQENPESCLSIVR (UniProt Q15361)”, for which the “probe-labelled cysteine peptide fold change” value is 0.0166 (10 µM) and 0.0241 (50 µM).
In the same order, the values of “TSNAX_Q99598_257_VENACYALK (UniProt Q99598)” are -0.025 and -0.0763.
For “TSC1_Q92574_822_VCHTELLLSQVSQK (UniProt Q92574)”, the “probe-labelled cysteine peptide fold change” value by setting is: (10 µM) -0.0685; (50 µM) 0.0424.
For the target “TTLL12_Q14166_361_KLSQERPGVLLNQFPCENLLTVK (UniProt Q14166)”, the “probe-labelled cysteine peptide fold change” value is -0.237 (10 µM) and -0.214 (50 µM).
In the same order, the values of “TTC1_Q99614_28_VTDTQEAECAGPPVPDPK (UniProt Q99614)” are -0.362 and -0.114.
The corresponding values for “TSC2_P49815_519_KLATQLLVDLAEGCHTHHFNSLLDIIEK (UniProt P49815)” are 0.161 and 0.0119.
In the same order, the values of “TUBB6_Q9BUF5_12_EIVHIQAGQCGNQIGTK (UniProt Q9BUF5)” are -0.0689 and -0.0846.
With “TTC37_Q6PGP7_352_NLCLHLK (UniProt Q6PGP7)”, the “probe-labelled cysteine peptide fold change” value is, setting by setting: (10 µM) -0.00995; (50 µM) 0.0287.
The corresponding values for “TSC22D4_Q9Y3Q8_92_WTCVDVYERDLEPHSFGGLLEGIR (UniProt Q9Y3Q8)” are 0.119 and -0.12.
The corresponding values for “TTK_P33981_322_PSGNDSCELR (UniProt P33981)” are -0.16 and -0.123.
In the same order, the values of “TSFM_P43897_149_FQLLVQQVALGTMMHCQTLK (UniProt P43897)” are -0.117 and -0.0693.
“TRPV2_Q9Y5S1_332_KFTEWCYGPVR (UniProt Q9Y5S1)”: the “probe-labelled cysteine peptide fold change” value (10 µM) came to 0.0298 and the “probe-labelled cysteine peptide fold change” value (50 µM) is -0.129.
With “TTF2_Q9UNY4_648_DDSCDFTSHGTLIICPASLIHHWK (UniProt Q9UNY4)”, the “probe-labelled cysteine peptide fold change” value runs as follows: (10 µM) 0.127; (50 µM) 0.0472.
In the same order, the values of “TTC7A_Q9ULT0_299_HLAGVLLHSLSEECYWSPLSHPLPEFMGK (UniProt Q9ULT0)” are 0.103 and 0.21.
In the same order, the values of “TWSG1_Q9GZX9_208_WFHNACCECIGPECIDYGSK (UniProt Q9GZX9)” are 0.135 and 0.0758.
Turning to “TWISTNB_Q3B726_193_LDSDAAGVFCIR (UniProt Q3B726)”, the “probe-labelled cysteine peptide fold change” value came to 0.298 (10 µM) and 0.202 (50 µM).
The corresponding values for “TTC28_Q96AY4_726_ALGNLGDIFICK (UniProt Q96AY4)” are 0.224 and 0.1.
In the same order, the values of “TROVE2_P10155_71_GCEVIQEIK (UniProt P10155)” are 0.0303 and -0.0657.
In the case of “TSPYL5_Q86VY4_79_LGEEAACR (UniProt Q86VY4)”, the “probe-labelled cysteine peptide fold change” value (10 µM) is -0.196 and the “probe-labelled cysteine peptide fold change” value (50 µM) was -0.262.
Turning to “TRMT2A_Q8IZ69_243+260_CEFLVGVGVDGEDNTVGCR (UniProt Q8IZ69)”, the “probe-labelled cysteine peptide fold change” value worked out at 0.183 (10 µM) and 0.123 (50 µM).
The corresponding values for “TUT7_Q5VYS8_417_VSAGNENACLTTK (UniProt Q5VYS8)” are 0.0456 and 0.0596.
In the same order, the values of “TUBGCP2_Q9BSJ2_733_SASNIDDVLGHHTGFLDTCLK (UniProt Q9BSJ2)” are 0.244 and 0.0122.
The corresponding values for “TUBGCP3_Q96CW5_18_SPNVLLQNLCCR (UniProt Q96CW5)” are -0.0673 and 0.0368.
Take “TWSG1_Q9GZX9_185_ISCESMGASK (UniProt Q9GZX9)”: the “probe-labelled cysteine peptide fold change” value is, setting by setting: (10 µM) -0.181; (50 µM) -0.0805.
The corresponding values for “TTLL12_Q14166_126_ESGLQAAHPNSIFLIDHAWTCR (UniProt Q14166)” are -0.0534 and 0.0185.

Source of the values: the supplement of paper PMC12067093, “Discovery and optimisation of a covalent ligand for TRIM25 and its application to targeted protein ubiquitination” (Chemical Science, 2025).
